The values below come from doi:10.1101/2022.01.21.477187.

Sequences of proteins named here, by UniProt entry; tags and fusion partners are left off. Residues count along the entry.
UniProt Q02224, residues 1-483: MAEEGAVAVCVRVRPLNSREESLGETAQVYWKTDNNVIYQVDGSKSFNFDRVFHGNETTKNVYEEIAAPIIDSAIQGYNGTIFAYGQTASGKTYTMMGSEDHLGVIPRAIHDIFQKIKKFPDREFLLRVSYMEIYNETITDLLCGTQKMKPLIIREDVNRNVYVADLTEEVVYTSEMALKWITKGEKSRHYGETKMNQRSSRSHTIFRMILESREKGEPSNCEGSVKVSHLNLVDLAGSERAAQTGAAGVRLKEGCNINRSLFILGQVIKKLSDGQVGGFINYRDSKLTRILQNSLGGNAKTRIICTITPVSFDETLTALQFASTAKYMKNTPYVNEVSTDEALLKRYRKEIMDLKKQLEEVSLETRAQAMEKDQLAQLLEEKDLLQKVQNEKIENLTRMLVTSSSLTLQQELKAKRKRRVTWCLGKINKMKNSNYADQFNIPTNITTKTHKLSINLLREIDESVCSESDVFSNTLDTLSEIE

In this test the target is human CENP-E483 followed by two tandem mNeonGreen fluorophores (human) (UniProt Q02224). Description: native gel or EMSA. For orientation: Mobility shift assays separate free from complexed probe on a gel.

These are yes or no findings as the source states them, for the method shown. Some entries that bind do so weakly or less than the wild type.

For “human CENP-E483 followed by two tandem mNeonGreen fluorophores (from UniProt Q02224 1-483) (domain or fragment)”, the binding entry is given as “binds weakly”.
